Source: PMC11106082
Results are given in words; binding and its absence hold for the method and conditions named. Binding calls can cover weak binding; strength is not graded here.

Molecular target: TssB1C1 (P. aeruginosa)
Assay: two-hybrid; bacterial two-hybrid (BTH): T18 and T25 fusions from pKT25 or pUT18C co-transformed into E. coli DHM1; spotted on LB agar with 1 mM IPTG and 100 µg/ml X-Gal, 30 °C, 24 or 40 h; blue colour on interaction

B1: TssA1 (protein, UniProt Q9I750 1-344)
chain: MLDVPVLLAAVSPDSPCGDDLEYDAAFLELERIAQGQPERQMGDAVLPAEPPEWPRVRALASELFGRSKDLRVANLLLQSNVALDGLDGLADGLLLVRELLGQYWDGVYPLLDADDDNDPTFRINALTGLVAEPLLQLVWAIPLVRSRAFGPVNLRAALNAAGLQRFASETLSPEQIAGAFADADADALAATRRALDGAQEHALAIESGVAERVGSAQGLDLGPLRQLLRQALQVFDLYGPQGAGESLAPGAEAVADEQVGAAPVAAVAAPAPRASGEIANREDVLRQLDRLLEYYVRHEPSSPVPVLLKRAKTLVTADFAEIVRNLIPDGISQFETLRGPESE
- binding: binds
